{
  "sequences": {"note": "Amino acid sequences for entries named in this document (tags omitted). Residues count along the entry.", "UniProt P11717, 41-1365 limits assumed": "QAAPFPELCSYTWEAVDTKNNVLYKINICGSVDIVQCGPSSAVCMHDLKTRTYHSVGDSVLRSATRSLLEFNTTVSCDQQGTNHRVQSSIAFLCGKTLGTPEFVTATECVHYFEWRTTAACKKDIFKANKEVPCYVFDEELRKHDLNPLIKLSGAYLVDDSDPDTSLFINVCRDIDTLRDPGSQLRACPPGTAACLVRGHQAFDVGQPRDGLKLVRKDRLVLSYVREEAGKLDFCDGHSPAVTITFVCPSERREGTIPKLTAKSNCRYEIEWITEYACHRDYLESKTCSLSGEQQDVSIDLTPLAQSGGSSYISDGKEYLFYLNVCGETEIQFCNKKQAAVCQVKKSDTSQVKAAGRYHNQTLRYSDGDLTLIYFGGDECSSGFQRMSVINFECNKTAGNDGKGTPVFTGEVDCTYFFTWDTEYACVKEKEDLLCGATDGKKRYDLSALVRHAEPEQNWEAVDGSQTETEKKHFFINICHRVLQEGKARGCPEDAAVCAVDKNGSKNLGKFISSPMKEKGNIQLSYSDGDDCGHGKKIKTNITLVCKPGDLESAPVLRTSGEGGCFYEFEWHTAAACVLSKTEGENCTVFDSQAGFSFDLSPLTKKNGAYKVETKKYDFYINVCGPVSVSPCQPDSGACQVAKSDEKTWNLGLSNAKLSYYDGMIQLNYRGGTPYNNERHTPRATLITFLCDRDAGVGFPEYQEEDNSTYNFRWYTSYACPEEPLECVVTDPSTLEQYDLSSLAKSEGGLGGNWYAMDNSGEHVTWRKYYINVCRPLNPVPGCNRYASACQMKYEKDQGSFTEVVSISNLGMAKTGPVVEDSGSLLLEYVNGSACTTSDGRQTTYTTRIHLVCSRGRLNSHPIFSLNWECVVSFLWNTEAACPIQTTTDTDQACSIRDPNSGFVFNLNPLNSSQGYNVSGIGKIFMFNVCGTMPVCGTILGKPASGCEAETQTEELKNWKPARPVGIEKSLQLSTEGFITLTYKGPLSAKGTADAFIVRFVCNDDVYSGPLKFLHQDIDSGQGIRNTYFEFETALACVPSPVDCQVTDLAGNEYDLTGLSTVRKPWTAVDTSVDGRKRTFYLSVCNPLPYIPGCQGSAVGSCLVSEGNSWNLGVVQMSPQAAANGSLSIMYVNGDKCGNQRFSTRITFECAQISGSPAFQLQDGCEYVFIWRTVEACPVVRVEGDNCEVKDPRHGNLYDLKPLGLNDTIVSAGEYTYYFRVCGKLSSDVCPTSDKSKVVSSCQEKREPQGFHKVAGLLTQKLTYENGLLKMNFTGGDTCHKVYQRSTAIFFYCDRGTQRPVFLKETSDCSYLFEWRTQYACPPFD"},
  "source": "patent US20240335544A1",
  "about": "“M6PR CELL SURFACE RECEPTOR BINDING COMPOUNDS AND CONJUGATES” (LYCIA THERAPEUTICS, INC., priority 2021, published 2024)",
  "key": {"[1]": {"target": "recombinant human CI-M6PR protein (Homo sapiens, UniProt P11717)", "assay": "Human CI-M6PR binding assay (ELISA)"}, "[2]": {"tested_on": "Jurkat cells", "assay": "Conjugate-mediated uptake of IgG2a-Alexa488 into Jurkat cells", "details": "one hour incubation, FIG. 12; DAR 9-11 per conjugate"}, "[3]": {"tested_on": "wild type (WT) K562 cells", "assay": "CI-M6PR mediated uptake of Alexa488-IgE in wild type K562 cells", "details": "omalizumab conjugates, average loading DAR9, FIG. 14"}},
  "note": "Read-outs that look alike come from different tables or passages of the source. The structures given here were assigned with low confidence; some may be wrong.",
  "data": [
    {"compound": "O=C(CCOCCOCCOCCN(CCOCCOCCOCCn1cc(CCCCNC(=S)Nc2ccc(O[C@H]3O[C@H](CCP(=O)(O)O)[C@@H](O)[C@H](O)[C@@H]3O)cc2)nn1)CCOCCOCCOCCn1cc(CCCCNC(=S)Nc2ccc(O[C@H]3O[C@H](CCP(=O)(O)O)[C@@H](O)[C@H](O)[C@@H]3O)cc2)nn1)NCCN1C(=O)C=CC1=O", "values": [
      {"measurement": "EC50", "setting": "[1]; read-out: EC50 in M6PR binding assay, Table 16B, antibody conjugate, loading printed as (maleimide-Cys conjugation)", "value": 0.27, "unit": "nM"}
    ]},
    {"compound": "O=C(CCOCCn1cc(COCCOCCOCCNC(=S)Nc2ccc(O[C@H]3O[C@H](CCP(=O)(O)O)[C@@H](O)[C@H](O)[C@@H]3O)cc2)nn1)Oc1c(F)c(F)c(F)c(F)c1F", "values": [
      {"measurement": "EC50", "setting": "[1]; read-out: EC50 (nM) in M6PR binding assay, antibody conjugate, average loading DAR 11", "value": 0.23, "unit": "nM"},
      {"measurement": "EC50", "setting": "[1]; read-out: EC50 in M6PR binding assay for conjugates of monovalent compounds of varying linker length and loading, Table 16E, conjugate, m average DAR 11", "value": 0.23, "unit": "nM"},
      {"measurement": "uptake into Jurkat cells (cell fluorescence vs conjugate concentration)", "setting": "[2]", "value": "strong cell uptake"}
    ]},
    {"compound": "O=C(CCOCCOCCOCCOCCn1cc(CCCCNC(=S)Nc2ccc(O[C@H]3O[C@H](CC(C(=O)O)C(=O)O)[C@@H](O)[C@H](O)[C@@H]3O)cc2)nn1)Oc1c(F)c(F)c(F)c(F)c1F", "values": [
      {"measurement": "uptake into Jurkat cells (cell fluorescence vs conjugate concentration)", "setting": "[2]", "value": "strong cell uptake"},
      {"measurement": "cell uptake of Alexa488-IgE target, WT K562 versus CI-M6PR KO cells", "setting": "[3]", "value": "CI-M6PR dependent"}
    ]},
    {"compound": "O=C(CCOCCn1cc(CCCCNC(=S)Nc2ccc(O[C@H]3O[C@H](CCP(=O)(O)O)[C@@H](O)[C@H](O)[C@@H]3O)cc2)nn1)Oc1c(F)c(F)c(F)c(F)c1F", "values": [
      {"measurement": "EC50", "setting": "[1]; read-out: EC50 (nM) in M6PR binding assay, antibody conjugate, average loading DAR 9.5", "value": 0.27, "unit": "nM"},
      {"measurement": "EC50", "setting": "[1]; read-out: EC50 in M6PR binding assay for conjugates of monovalent compounds of varying linker length and loading, Table 16E, conjugate, m average DAR 9.5", "value": 0.27, "unit": "nM"},
      {"measurement": "uptake into Jurkat cells (cell fluorescence vs conjugate concentration)", "setting": "[2]", "value": "strong cell uptake"}
    ]}
  ]
}
